Results from PubChem BioAssay AID588522 (NMMLSC, 2011).
Among all 1,700 compounds or so, about 20 (1%) were called active.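 How the source made its calls: active means inhibition above the screen-wide mean plus twice its standard deviation (cut at about 32% in these data); inactive means the rest.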 The entries are a selection whose mix differs from that of the whole data set.

test system: Candida albicans drug resistance protein 1 (Cdr1) expressed in S. cerevisiae; assay: inhibitors of Candida albicans Cdr1 efflux pump, confirmation, S. cerevisiae AD/CaCDR1, flow cytometry, cherry pick 1, singleplex (AID 588522); conditions: S. cerevisiae AD/CaCDR1, Nile Red efflux, at 10 µM, stronger effect = higher value

SMILES | inhibition
O=[N+]([O-])c1cnc2ccc3ccccc3c2c1 | inactive: -0.06%
CCN(CC)c1ccc([N+](=O)[O-])c2cccnc12 | inactive: -0.07%
